Results are given in words; binding and its absence hold for the method and conditions named. Some entries that bind do so weakly or less than the wild type.
T1: Smc1 (E1158Q) (budding yeast) (UniProt P32908)
T1 sequence: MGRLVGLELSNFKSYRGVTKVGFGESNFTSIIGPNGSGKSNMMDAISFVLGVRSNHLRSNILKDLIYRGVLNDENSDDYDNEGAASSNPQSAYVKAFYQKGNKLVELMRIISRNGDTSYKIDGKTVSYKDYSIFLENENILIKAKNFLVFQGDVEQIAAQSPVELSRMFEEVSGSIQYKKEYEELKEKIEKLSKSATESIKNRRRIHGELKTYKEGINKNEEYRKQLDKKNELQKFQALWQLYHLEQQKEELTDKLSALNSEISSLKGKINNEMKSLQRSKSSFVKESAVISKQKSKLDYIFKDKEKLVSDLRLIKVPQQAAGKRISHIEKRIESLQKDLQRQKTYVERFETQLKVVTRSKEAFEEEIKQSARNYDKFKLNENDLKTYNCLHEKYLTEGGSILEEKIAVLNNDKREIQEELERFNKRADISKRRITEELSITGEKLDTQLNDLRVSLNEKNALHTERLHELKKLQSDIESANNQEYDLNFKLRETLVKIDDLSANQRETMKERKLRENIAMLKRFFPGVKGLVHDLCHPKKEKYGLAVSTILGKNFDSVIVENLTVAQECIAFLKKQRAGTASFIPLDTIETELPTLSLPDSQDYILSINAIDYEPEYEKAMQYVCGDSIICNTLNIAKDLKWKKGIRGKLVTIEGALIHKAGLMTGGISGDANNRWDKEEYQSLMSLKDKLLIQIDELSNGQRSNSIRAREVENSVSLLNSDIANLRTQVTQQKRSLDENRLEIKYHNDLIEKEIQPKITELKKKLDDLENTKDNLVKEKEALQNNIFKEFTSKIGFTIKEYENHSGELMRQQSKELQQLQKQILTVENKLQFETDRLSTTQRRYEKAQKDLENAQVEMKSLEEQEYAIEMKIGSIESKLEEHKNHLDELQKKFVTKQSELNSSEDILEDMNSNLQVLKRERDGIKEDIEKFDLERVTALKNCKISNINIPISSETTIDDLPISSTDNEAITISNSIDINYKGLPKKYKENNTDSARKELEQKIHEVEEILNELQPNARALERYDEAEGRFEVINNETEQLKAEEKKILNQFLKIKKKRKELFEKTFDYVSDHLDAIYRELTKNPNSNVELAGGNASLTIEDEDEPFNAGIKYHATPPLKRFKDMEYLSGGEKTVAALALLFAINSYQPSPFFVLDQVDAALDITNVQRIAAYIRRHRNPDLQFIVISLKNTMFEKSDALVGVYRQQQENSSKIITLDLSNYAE

T2: Scc2 (budding yeast) (UniProt Q04002)
T2 sequence: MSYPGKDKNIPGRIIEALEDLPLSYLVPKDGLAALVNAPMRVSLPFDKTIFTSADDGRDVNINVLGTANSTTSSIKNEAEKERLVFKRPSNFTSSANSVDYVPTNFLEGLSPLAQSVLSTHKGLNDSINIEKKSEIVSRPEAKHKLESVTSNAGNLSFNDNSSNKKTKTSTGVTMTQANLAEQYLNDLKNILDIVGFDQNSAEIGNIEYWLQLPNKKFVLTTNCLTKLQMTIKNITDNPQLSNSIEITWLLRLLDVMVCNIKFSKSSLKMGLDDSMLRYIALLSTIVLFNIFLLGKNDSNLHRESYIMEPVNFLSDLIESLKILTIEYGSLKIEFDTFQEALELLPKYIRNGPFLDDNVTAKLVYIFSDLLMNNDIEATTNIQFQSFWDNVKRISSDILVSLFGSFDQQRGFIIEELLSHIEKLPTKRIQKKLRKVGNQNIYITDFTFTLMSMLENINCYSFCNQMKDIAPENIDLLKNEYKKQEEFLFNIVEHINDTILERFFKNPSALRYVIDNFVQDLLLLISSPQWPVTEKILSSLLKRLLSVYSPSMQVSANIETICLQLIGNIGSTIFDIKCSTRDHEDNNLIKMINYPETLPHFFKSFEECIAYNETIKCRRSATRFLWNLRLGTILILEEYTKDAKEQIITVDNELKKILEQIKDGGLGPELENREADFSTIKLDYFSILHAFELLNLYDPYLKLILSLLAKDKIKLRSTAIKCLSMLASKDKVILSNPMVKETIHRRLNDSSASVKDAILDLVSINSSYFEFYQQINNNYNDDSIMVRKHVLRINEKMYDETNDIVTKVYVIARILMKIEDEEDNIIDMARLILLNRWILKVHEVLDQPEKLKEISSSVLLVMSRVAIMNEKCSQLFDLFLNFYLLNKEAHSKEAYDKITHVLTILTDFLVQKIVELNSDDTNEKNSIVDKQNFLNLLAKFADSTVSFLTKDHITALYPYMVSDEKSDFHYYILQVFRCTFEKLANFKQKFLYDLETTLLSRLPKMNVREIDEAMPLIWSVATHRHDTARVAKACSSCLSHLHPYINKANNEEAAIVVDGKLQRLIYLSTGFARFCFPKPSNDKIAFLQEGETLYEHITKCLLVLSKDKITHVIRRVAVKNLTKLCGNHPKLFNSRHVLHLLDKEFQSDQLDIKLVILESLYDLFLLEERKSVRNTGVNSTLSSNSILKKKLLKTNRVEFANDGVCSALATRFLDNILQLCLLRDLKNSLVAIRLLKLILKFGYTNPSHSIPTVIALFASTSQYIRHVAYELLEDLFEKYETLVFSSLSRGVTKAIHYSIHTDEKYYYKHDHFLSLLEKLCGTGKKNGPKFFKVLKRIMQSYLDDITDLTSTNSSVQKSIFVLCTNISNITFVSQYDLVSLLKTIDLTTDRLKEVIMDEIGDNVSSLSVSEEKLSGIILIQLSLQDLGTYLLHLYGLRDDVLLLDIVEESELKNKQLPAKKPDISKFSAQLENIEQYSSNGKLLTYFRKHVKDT


What was measured:
[1] = target: T1, Smc1 (E1158Q) (budding yeast); assay: co-purification (IgG affinity, heparin, size exclusion chromatography); four subunits co-overexpressed in budding yeast; lysate on IgG agarose by the protein A tags on Scc1, 300 mM NaCl washes, PreScission protease elution, HiTrap Heparin, Superose 6 in 150 mM NaCl; fractions analysed by SDS-PAGE, Coomassie Blue and immunoblotting
Scc2 (budding yeast) = target: T2, Scc2 (budding yeast); assay: co-purification (IgG affinity, heparin, size exclusion chromatography); Scc2 and Scc4 co-overexpressed in budding yeast; lysate on IgG agarose by the protein A tags on Scc2, 300 mM NaCl washes, 3C protease elution, HiTrap Heparin, Superdex 200 in buffer R; SDS-PAGE, Coomassie Blue and immunoblotting

binding [1] | binding (Scc2 (budding yeast)) | Binder
binds | – | Smc3 (E1155Q) (protein, UniProt P47037 1-1230) MYIKRVIIKGFKTYRNETIIDNFSPHQNVIIGSNGSGKSNFFAAIRFVLSDDYSNLKREERQGLIHQGSGGSVMSASVEIVFHDPDHSMILPSGVLSRGDDEVTIRRTVGLKKDDYQLNDRNVTKGDIVRMLETAGFSMNNPYNIVPQGKIVALTNAKDKERLQLLEDVVGAKSFEVKLKASLKKMEETEQKKIQINKEMGELNSKLSEMEQERKELEKYNELERNRKIYQFTLYDRELNEVINQMERLDGDYNNTVYSSEQYIQELDKREDMIDQVSKKLSSIEASLKIKNATDLQQAKLRESEISQKLTNVNVKIKDVQQQIESNEEQRNLDSATLKEIKSIIEQRKQKLSKILPRYQELTKEEAMYKLQLASLQQKQRDLILKKGEYARFKSKDERDTWIHSEIEELKSSIQNLNELESQLQMDRTSLRKQYSAIDEEIEELIDSINGPDTKGQLEDFDSELIHLKQKLSESLDTRKELWRKEQKLQTVLETLLSDVNQNQRNVNETMSRSLANGIINVKEITEKLKISPESVFGTLGELIKVNDKYKTCAEVIGGNSLFHIVVDTEETATLIMNELYRMKGGRVTFIPLNRLSLDSDVKFPSNTTTQIQFTPLIKKIKYEPRFEKAVKHVFGKTIVVKDLGQGLKLAKKHKLNAITLDGDRADKRGVLTGGYLDQHKRTRLESLKNLNESRSQHKKILEELDFVRNELNDIDTKIDQVNGNIRKVSNDRESVLTNIEVYRTSLNTKKNEKLILEESLNAIILKLEKLNTNRTFAQEKLNTFENDLLQEFDSELSKEEKERLESLTKEISAAHNKLNITSDALEGITTTIDSLNAELESKLIPQENDLESKMSEVGDAFIFGLQDELKELQLEKESVEKQHENAVLELGTVQREIESLIAEETNNKKLLEKANNQQRLLLKKLDNFQKSVEKTMIKKTTLVTRREELQQRIREIGLLPEDALVNDFSDITSDQLLQRLNDMNTEISGLKNVNKRAFENFKKFNERRKDLAERASELDESKDSIQDLIVKLKQQKVNAVDSTFQKVSENFEAVFERLVPRGTAKLIIHRKNDNANDHDESIDVDMDAESNESQNGKDSEIMYTGVSISVSFNSKQNEQLHVEQLSGGQKTVCAIALILAIQMVDPASFYLFDQIDAALDKQYRTAVATLLKELSKNAQFICTTFRTDMLQVADKFFRVKYENKISTVIEVNREEAIGFIRGSNKFAEV
– | binds | Scc4 (protein, UniProt P40090 1-624) MENLGDKLSISQVYHLAQEYRDHAYSIANKIGSEEGLKQYYGLMNMSIQMFQLLKTKCTLSVLEDSKVTFEMVELLIQETYNFDLAELYISSLKERLQTHQSDTDLVEEIMRCEFLLLHDLPLMRDSKFHYKIALRNCNELVQYMVNLQDELYQNWASVFQYVGVMLCIKLKQHRRVKTSFHGLLSQCREKSQWKWFLNLCYVNYLLNERFPIPEDALQELRSTELHTVGPELYAWKLALEMVIQLCKDGNITDHLNEFKNFFDTNKQSLVTNEGKGCVIKIMPRIALKVELPMIFHYKELKNILLLLQSVSYIVNCYDEKGNFSRKFLPKVYSTTQKLIKNIAAGGVSMNELDSRIQTYKSILEFCEFYKVWEQTLLKGAVVTTESPKLGPSPGYVRLLQAMKVQFEGGGAVEEYTRLAQSGGTSSEVKMISLLNCYTVQAARVSRCSGDKQGELVEQCNKVWLQVEKLLQETDLQFNPIWECTVTILWLFSHFEPFSWNPLPCSDKQRAEYVSKLREFYSSNKFVAGEAVADNRFKLKKALLLQILVNYLGGRMLEHDLGEIYAISAKCFDMCRQQGGMRKVQYVIGIWHLMNCTVAMRGKDVALTNAKLEALVKQITSVKQ
